Literature values in patent publication US10881649B2, “Therapeutic agent or preventive agent for alopecia areata” (Toray Industries, Inc., priority 2017, dated 2021).
At least one structure is not confirmed: it was looked up by name or label, or the drawing left a doubt.

What was measured:
[1] = tested on: patients with alopecia areata; conditions: Journal of Clinical Investigation Insight, 2016; cited from earlier work
alopecia areata model = conditions: Nature Medicine, 2014; cited from earlier work

**Q.** Which “patients in the treatment group with a hair growth effect” value [1] does the source give for `N#CC[C@H](C1CCCC1)n1cc(-c2ncnc3[nH]ccc23)cn1` [ruxolitinib] here?
**A.** Its value is 75%.

**Q.** And the “effect on hair loss symptoms” value (alopecia areata model)?
**A.** The value was “suppressive effect on hair loss symptoms”.
